Measurements taken from article PMC11270583.
Changes are numbered by the printed parent chain. These are yes or no findings as the source states them, for the method shown. Binding seen in cells or lysates may run through a third protein. Some binding calls cover weakened binding; strength is not graded here. For some assays here: Where a sequence is shown, tags or fusion partners need not be part of it.

Legend:
[1] = target: T1, Flag-tagged FLOT2^L104A mutant (UniProt Q60634); test: co-IP; Flag-tagged FLOT2 L104A in transfected 4T1 cells with RAB31 (Figure S9, not shown; the sentence does not name the method, co-IP is the paper's only method with a RAB31 antibody)
T1 sequence: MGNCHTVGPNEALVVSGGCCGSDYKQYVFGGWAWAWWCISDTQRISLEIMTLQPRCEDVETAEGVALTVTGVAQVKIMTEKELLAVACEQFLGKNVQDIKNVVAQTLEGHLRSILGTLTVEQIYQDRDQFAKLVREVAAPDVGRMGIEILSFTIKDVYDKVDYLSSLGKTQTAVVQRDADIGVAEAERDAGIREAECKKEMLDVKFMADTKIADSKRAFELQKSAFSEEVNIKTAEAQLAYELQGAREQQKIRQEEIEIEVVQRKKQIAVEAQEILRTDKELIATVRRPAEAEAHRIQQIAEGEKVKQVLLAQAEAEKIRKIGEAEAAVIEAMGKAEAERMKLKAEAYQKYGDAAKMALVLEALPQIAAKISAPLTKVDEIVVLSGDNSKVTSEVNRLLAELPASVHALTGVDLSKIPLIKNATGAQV

[2] = target: T2, flotillin 2 (FLOT2) (mouse (endogenous in 4T1)) (UniProt Q60634); test: co-IP; endogenous RAB31 and FLOT2 in 4T1 cells, Pierce Co-Immunoprecipitation Kit; cells untreated or treated with 1.25-5 uM baohuoside I (BHS) for 48 h; which protein was precipitated is not told
T2 sequence: T1 sequence with A104L

B1: RAS oncogene family member 31 (RAB31) (protein, UniProt Q921E2 1-195)
chain: MMAIRELKVCLLGDTGVGKSSIVCRFVQDHFDHNISPTIGASFMTKTVPCGNELHKFLIWDTAGQERFHSLAPMYYRGSAAAVIVYDITKQDSFHTLKKWVKELKEHGPENIVMAIAGNKCDLSDIREVPLKDAKEYAESIGAIVVETSAKNAINIEELFQGISRQIPPLGPQENGNSGGIKLGNQSLQASRRCC
Question: B1 was tested. Which binding [1] did it give?
Answer: binds

Question: And the binding [2]?
Answer: binds
